Experimental data: patent US5605911A, “Use of alpha-2 adrenergic drugs to prevent adverse effects of NMDA receptor hypofunction (NRH)” (priority 1995, dated 1997)
At least one structure is not confirmed: it was looked up by name or label, or the drawing left a doubt.

Tests used:
[1] = system: chick embryo retina; assay: NMDA excitotoxicity in chick embryo retina segments, protection by MK-801 with or without alpha-2 agonist; format: cell-based; details: NMDA 40 μM alone, 30 min, n=6
Procedure: These experiments were performed using segments of chick embryo retina. This is a widely used model for studying the production and prevention of excitotoxic phenomena, since it is simple and inexpensive. Chick tissue is used, since it tends to provide a better model of adult mammalian tissue than embryonic or juvenile mammalian tissue. Unlike newborn mammals, which are usually blind at birth, baby chicks can see quite well as soon as they emerge from the shell, and the NMDA receptors in chick retinal tissue are fully mature and functional.
In these tests, NMDA was introduced into the incubation medium in a concentration (40 μM) sufficient to produce a fully developed excitotoxic lesion within 30 min, displaying acute degeneration and necrosis of the majority of neurons in the inner layers of the retina.

[2] = system: KA and/or QUIS/AMPA classes of EAA receptors; assay: blocking of MK-801 neurotoxic side effects by non-NMDA antagonist drugs in vivo; details: adult rats
Text: In addition to the foregoing classes of drugs, the Applicants have also recently discovered that non-NMDA antagonist drugs which can penetrate the BBB and block the KA and/or QUIS/AMPA classes of EAA receptors.

SMILES | acute lesions / cytopathology in retina [1] | block of neurotoxic side effects of NMDA antagonist drugs such as MK-801 [2]
CN[C@H](CC(=O)O)C(=O)O [NMDA, n-methyl-D-aspartate] | well developed acute lesions affecting the inner neural layers of the retina | –
CC1=NN=C(c2ccc(N)cc2)c2cc3c(cc2C1)OCO3 [GYKI 52466, 1-(amino-phenyl)-4-methyl-7,8-methylendioxy-5H-2,3-benzodiazepine] | – | can also block the neurotoxic side effects of NMDA antagonist drugs such as MK-801
